PubChem BioAssay AID1259405 – NCATS | 2018

- Screen: 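Knock-downs that lift recombinant protein yield in hamster ovary cells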 (primary screen)
- Cell system: Chinese hamster CHO-K1 ovary cells with stable secreted eGFP expression
- Knock-down reagent: single siRNA against mouse genes, 0.8 pmol siRNA per well (2 µl of 400 nM stock)
- Time to read-out: 3 days
- Read-out: 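Percent of the per-plate non-targeting control median for intracellular GFP per well by laser scanning cytometry and for cell viability by ATP luminescence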
- Scale: GFP, % of control: higher = more GFP per well, higher productivity; viability (ATP), % of control: higher = more viable cells (more ATP)
- Active means: 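a knock-down is called active if GFP reaches 120% or more of non-targeting control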
This is one part, drawn at random, of about 50,000 deposited reagents. Of all reagents, about 4,000 (8%) were called active. 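Mouse siRNA library applied to hamster cells; one well for each siRNA.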 The numbers tell different reagents against one gene apart.

| gene symbol | reagent | GFP, % of control | viability (ATP), % of control | Outcome |
| --- | --- | --- | --- | --- |
| C3ar1 (complement component 3a receptor 1) | 1 | 95.6 | 75.4 | inactive |
| C3ar1 (complement component 3a receptor 1) | 2 | 88.1 | 82.2 | inactive |
| C3ar1 (complement component 3a receptor 1) | 3 | 70 | 59.7 | inactive |
| Gdnf (glial cell line derived neurotrophic factor) | 1 | 86.8 | 78.9 | inactive |
| Gdnf (glial cell line derived neurotrophic factor) | 2 | 115 | 77.4 | inactive |
| Gdnf (glial cell line derived neurotrophic factor) | 3 | 72.1 | 64.3 | inactive |
| Gm128 (predicted gene 128) | 1 | 68.4 | 74.7 | inactive |
| Gm128 (predicted gene 128) | 2 | 83.8 | 82.4 | inactive |
| Gm128 (predicted gene 128) | 3 | 68.2 | 42.8 | inactive |
| Or9r7 (olfactory receptor family 9 subfamily R member 7) | 1 | 41.9 | 46.9 | inactive |
| Or9r7 (olfactory receptor family 9 subfamily R member 7) | 2 | 13.7 | 35.4 | inactive |
| Or9r7 (olfactory receptor family 9 subfamily R member 7) | 3 | 35.2 | 42.4 | inactive |
| Wipf1 (WAS/WASL interacting protein family, member 1) | 1 | 60.4 | 56.1 | inactive |
| Wipf1 (WAS/WASL interacting protein family, member 1) | 2 | 85.3 | 80.2 | inactive |
| Wipf1 (WAS/WASL interacting protein family, member 1) | 3 | 90.3 | 92.2 | inactive |
| Cpsf7 (cleavage and polyadenylation specific factor 7) | 1 | 71 | 75.8 | inactive |
| Cpsf7 (cleavage and polyadenylation specific factor 7) | 2 | 63.9 | 67.2 | inactive |
| Cpsf7 (cleavage and polyadenylation specific factor 7) | 3 | 32 | 47.5 | inactive |
| Eogt (EGF domain specific O-linked N-acetylglucosamine transferase) | 1 | 123 | 120 | active |
| Eogt (EGF domain specific O-linked N-acetylglucosamine transferase) | 2 | 70.5 | 64.3 | inactive |
| Eogt (EGF domain specific O-linked N-acetylglucosamine transferase) | 3 | 77.3 | 75.5 | inactive |
| Ucp3 | 1 | 80.1 | 73.4 | inactive |
| Ucp3 | 2 | 129 | 84.3 | active |
| Ucp3 | 3 | 86.6 | 74.6 | inactive |
| Ogn (osteoglycin) | 1 | 131 | 70.5 | active |
| Ogn (osteoglycin) | 2 | 93.7 | 86.7 | inactive |
| Ogn (osteoglycin) | 3 | 61.3 | 66.5 | inactive |
| Lrrc24 (leucine rich repeat containing 24) | 1 | 119 | 70.2 | inactive |
| Lrrc24 (leucine rich repeat containing 24) | 2 | 104 | 89.8 | inactive |
| Lrrc24 (leucine rich repeat containing 24) | 3 | 51.1 | 56.6 | inactive |
| Cimap1c (ciliary microtubule associated protein 1C) | 1 | 94.3 | 68.1 | inactive |
| Cimap1c (ciliary microtubule associated protein 1C) | 2 | 82.9 | 68.1 | inactive |
| Cimap1c (ciliary microtubule associated protein 1C) | 3 | 84 | 83.9 | inactive |
| Trim12a (tripartite motif-containing 12A) | 1 | 96.8 | 46.5 | inactive |
| Trim12a (tripartite motif-containing 12A) | 2 | 65.2 | 69.8 | inactive |
| Trim12a (tripartite motif-containing 12A) | 3 | 66.1 | 73.1 | inactive |
| Csrp2 (cysteine and glycine-rich protein 2) | 1 | 134 | 88.2 | active |
| Csrp2 (cysteine and glycine-rich protein 2) | 2 | 111 | 110 | inactive |
| Adamts2 (ADAM metallopeptidase with thrombospondin type 1 motif 2) | 1 | 91.9 | 89.2 | inactive |
| Adamts2 (ADAM metallopeptidase with thrombospondin type 1 motif 2) | 2 | 79.6 | 64.5 | inactive |
| Adamts2 (ADAM metallopeptidase with thrombospondin type 1 motif 2) | 3 | 64.7 | 60.4 | inactive |
| Krtcap3 (keratinocyte associated protein 3) | 1 | 44 | 39.9 | inactive |
| Krtcap3 (keratinocyte associated protein 3) | 2 | 67.6 | 31.9 | inactive |
| Krtcap3 (keratinocyte associated protein 3) | 3 | 76.6 | 76.9 | inactive |
| Rpp21 (ribonuclease P 21 subunit) | 1 | 74.5 | 69.7 | inactive |
| Rpp21 (ribonuclease P 21 subunit) | 2 | 55.7 | 72.5 | inactive |
| Rpp21 (ribonuclease P 21 subunit) | 3 | 47.9 | 53.7 | inactive |
| Hmg20a (high mobility group 20A) | 1 | 65.5 | 99.5 | inactive |
| Hmg20a (high mobility group 20A) | 2 | 31.2 | 43.4 | inactive |
| Hmg20a (high mobility group 20A) | 3 | 106 | 96.1 | inactive |
| Pih1d2 (PIH1 domain containing 2) | 1 | 97.5 | 78.7 | inactive |
| Pih1d2 (PIH1 domain containing 2) | 2 | 50.7 | 54.5 | inactive |
| Pih1d2 (PIH1 domain containing 2) | 3 | 71.8 | 88.4 | inactive |
| Zdhhc13 (zinc finger, DHHC domain containing 13) | 1 | 90.5 | 71.9 | inactive |
| Zdhhc13 (zinc finger, DHHC domain containing 13) | 2 | 46 | 37.5 | inactive |
| Zdhhc13 (zinc finger, DHHC domain containing 13) | 3 | 62 | 91.8 | inactive |
| Mob1b (MOB kinase activator 1B) | 1 | 55.7 | 81.8 | inactive |
| Mob1b (MOB kinase activator 1B) | 2 | 97 | 101 | inactive |
| Epdr1 (ependymin related 1) | 1 | 119 | 75 | inactive |
| Epdr1 (ependymin related 1) | 2 | 73.8 | 64.8 | inactive |
| Epdr1 (ependymin related 1) | 3 | 79.9 | 104 | inactive |
| Epdr1 (ependymin related 1) | 4 | 81 | 86.6 | inactive |
| Epdr1 (ependymin related 1) | 5 | 78.5 | 103 | inactive |
| Ift38 (intraflagellar transport 38) | 1 | 79.3 | 74.9 | inactive |
| Ift38 (intraflagellar transport 38) | 2 | 39.5 | 66.4 | inactive |
| Ift38 (intraflagellar transport 38) | 3 | 92.4 | 75.6 | inactive |
| Cbl (Cbl proto-oncogene) | 1 | 86.3 | 85.5 | inactive |
| Cbl (Cbl proto-oncogene) | 2 | 105 | 94.8 | inactive |
| Cbl (Cbl proto-oncogene) | 3 | 113 | 119 | inactive |
| Prss21 (serine protease 21) | 1 | 84.3 | 68.2 | inactive |
| Prss21 (serine protease 21) | 2 | 77.1 | 51.1 | inactive |
| Prss21 (serine protease 21) | 3 | 99.7 | 74.4 | inactive |
| Cmtm2b (CKLF-like MARVEL transmembrane domain containing 2B) | 1 | 63.7 | 77.9 | inactive |
| Cmtm2b (CKLF-like MARVEL transmembrane domain containing 2B) | 2 | 128 | 79.9 | active |
| Cmtm2b (CKLF-like MARVEL transmembrane domain containing 2B) | 3 | 77.6 | 103 | inactive |
| Casp12 (caspase 12) | 1 | 71.5 | 87.6 | inactive |
| Casp12 (caspase 12) | 2 | 76.5 | 93.4 | inactive |
| Casp12 (caspase 12) | 3 | 51.1 | 58.1 | inactive |
| Hectd3 (HECT domain E3 ubiquitin protein ligase 3) | 1 | 83.2 | 75.2 | inactive |
| Hectd3 (HECT domain E3 ubiquitin protein ligase 3) | 2 | 24.5 | 32.2 | inactive |
| Hectd3 (HECT domain E3 ubiquitin protein ligase 3) | 3 | 45.7 | 41.8 | inactive |
| Ctdspl (CTD small phosphatase like) | 1 | 28.7 | 25.7 | inactive |
| Ctdspl (CTD small phosphatase like) | 2 | 59.3 | 79.5 | inactive |
| Ctdspl (CTD small phosphatase like) | 3 | 81.8 | 80.5 | inactive |

7 entries from above, arranged by “viability (ATP), % of control”, ascending:
| gene symbol | reagent | GFP, % of control | viability (ATP), % of control | Outcome |
| --- | --- | --- | --- | --- |
| Cpsf7 (cleavage and polyadenylation specific factor 7) | 3 | 32 | 47.5 | inactive |
| Eogt (EGF domain specific O-linked N-acetylglucosamine transferase) | 2 | 70.5 | 64.3 | inactive |
| Cpsf7 (cleavage and polyadenylation specific factor 7) | 2 | 63.9 | 67.2 | inactive |
| Eogt (EGF domain specific O-linked N-acetylglucosamine transferase) | 3 | 77.3 | 75.5 | inactive |
| Cpsf7 (cleavage and polyadenylation specific factor 7) | 1 | 71 | 75.8 | inactive |
| Wipf1 (WAS/WASL interacting protein family, member 1) | 3 | 90.3 | 92.2 | inactive |
| Eogt (EGF domain specific O-linked N-acetylglucosamine transferase) | 1 | 123 | 120 | active |
